Source: patent publication US7732444B2, “2-(amino-substituted)-4-aryl pyrimidines and related compounds useful for treating inflammatory diseases” (Millennium Pharmaceuticals, Inc., priority 2004, dated 2010)

Chains of the proteins cited; added tags and fusions are not shown. Lines headed by an entry give the natural chain unless they say otherwise; changes in a name come on top.
UniProt Q04759: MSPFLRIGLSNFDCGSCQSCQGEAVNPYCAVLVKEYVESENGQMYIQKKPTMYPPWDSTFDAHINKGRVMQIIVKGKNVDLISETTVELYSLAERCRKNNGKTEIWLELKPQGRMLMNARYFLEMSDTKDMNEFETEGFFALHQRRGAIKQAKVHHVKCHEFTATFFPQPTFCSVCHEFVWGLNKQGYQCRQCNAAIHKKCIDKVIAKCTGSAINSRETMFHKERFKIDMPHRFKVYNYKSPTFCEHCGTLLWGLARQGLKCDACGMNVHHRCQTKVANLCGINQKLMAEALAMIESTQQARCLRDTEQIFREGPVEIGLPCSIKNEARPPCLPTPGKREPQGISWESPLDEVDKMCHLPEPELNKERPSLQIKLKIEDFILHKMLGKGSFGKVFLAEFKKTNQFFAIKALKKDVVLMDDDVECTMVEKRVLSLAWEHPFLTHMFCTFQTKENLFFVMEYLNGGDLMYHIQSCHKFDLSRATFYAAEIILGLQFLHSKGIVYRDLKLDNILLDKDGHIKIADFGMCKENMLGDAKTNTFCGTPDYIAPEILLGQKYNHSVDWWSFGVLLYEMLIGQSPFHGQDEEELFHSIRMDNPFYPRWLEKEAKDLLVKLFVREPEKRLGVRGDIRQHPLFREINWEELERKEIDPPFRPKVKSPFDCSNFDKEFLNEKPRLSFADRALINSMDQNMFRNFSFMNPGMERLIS

Target: T1, full length PKC θ (Homo sapiens, UniProt Q04759)
T1 construct: 15 μL of full length PKC θ (Panvera Corporation); purchased Panvera Corporation
Assay: PKC-theta isoform inhibition assay (HTRF, 384 well plate)
Format: biochemical
Conditions: full length PKC θ at 27 pM, peptide substrate 300 nM + 3 μM ATP, HTRF readout
Experimental: An in vitro assay for detecting and measuring inhibition activity against PKC-theta isoform by candidate pharmacological agents is useful for evaluating and selecting a compound that modulates PKC-theta isoform. An IC50 value can be calculated after running the assay. Following is an assay protocol for measuring PKC-theta isoform.
Per well of a 384 well plate, compounds at various concentrations in 5 μL of 20% DMSO were pre-incubated for about 30 minutes at about 25° C. with 15 μL of full length PKC θ (Panvera Corporation) at 27 pM in an assay buffer (25 mM Hepes, pH 7.5, 5 mM DTT, 10 mM MgCl2, 10 mM 2-glycerophosphate, 12.5 μg/mL 1,2-dioleoyl-rac-glycerol, 10 μg/mL L-α-phosphatidyl-L-serine, 0.1% Bovine Serum Albumin). 10 μL of peptide substrate (biotin-(CH2)6— RFARKGSLRQKNV —CONH2) at 300 nM+3 μM ATP were added to each well and incubated for about 1 hour before quenching with 10 μL of 250 mM EDTA. 40 μL of detection buffer (25 mM Hepes, pH 7.5, 100 mM KF, 0.1% Bovine Serum Albumin, 0.01% Tween20) containing 2 nM anti-phospho antibody 2B9 (MBL International) labeled with europium cryptate (Cis-Bio International) and 0.0064 μg/mL streptavidin-allophycocyanin (Prozyme) was added to each well and incubated for two hours. Signal was then read on a Discovery HTRF (Packard).

IC50: < 100 nM
SMILES: NCCC(=O)Nc1cccc(-c2ccnc(NCCc3ccc(O)cc3)n2)c1 [Compound 77, 3-Amino-N-(3-{2-[2-(4-hydroxy-phenyl)-ethylamino]-pyrimidin-4-yl}-phenyl)-propionamide]
